Source: ChEMBL document CHEMBL1135998, “Identification of orally active, potent, and selective 4-piperazinylquinazolines as antagonists of the platelet-derived growth factor receptor tyrosine kinase family” (J Med Chem, 2002)

Experiments:
[1] = in vivo; conditions: simiiformes, plasma, po, 25 mg/kg
[2] = in vivo; conditions: rat, po, 20 mg/kg
[3] = in vivo; conditions: dog, po, 5 mg/kg
[4] = in vivo; conditions: primates, po, 25 mg/kg
[5] = in vivo; conditions: rat, po, 20 mg/kg; remark: listed apart in the source
[6] = in vivo; conditions: dog, po, 5 mg/kg; remark: listed apart in the source
[7] = in vivo; conditions: simiiformes, po, 25 mg/kg
[8] = in vivo; conditions: rat, po, 20 mg/kg; remark: listed apart in the source
[9] = in vivo; conditions: dog, po, 5 mg/kg; remark: listed apart in the source
[10] = in vivo; conditions: dog, po, 5 mg/kg; remark: listed apart in the source
[11] = in vivo; conditions: primates, po, 5 mg/kg
[12] = in vivo; conditions: rat, po, 5 mg/kg
[13] = in vivo; conditions: rat, po, 5 mg/kg; remark: listed apart in the source
[14] = in vivo; conditions: simiiformes, plasma, po, 5 mg/kg
[15] = in vivo
[16] = in vivo; conditions: dog, po, 5 mg/kg; remark: listed apart in the source
[17] = in vivo; conditions: simiiformes, po, 5 mg/kg
[18] = in vivo; conditions: dog, po, 5 mg/kg; remark: listed apart in the source

Row | SMILES | AUC [1] [ng·h/mL] | AUC [2] [ng·h/mL] | AUC [3] [ng·h/mL] | bioavailability [4] [%] | bioavailability [5] [%] | bioavailability [6] [%] | Cmax [7] [ng/mL] | Cmax [8] [ng/mL] | Cmax [9] [ng/mL] | bioavailability [10] [%] | bioavailability [11] [%] | bioavailability [12] [%] | AUC [13] [ng·h/mL] | AUC [14] [ng·h/mL] | Cmax [15] [ng/mL] | Cmax [16] [ng/mL] | Cmax [17] [ng/mL] | AUC [18] [ng·h/mL]
1 | COc1cc2c(N3CCN(C(=O)Nc4ccc(OC(C)C)cc4)CC3)ncnc2cc1OCCCN1CCC(C)CC1 | 16100 | 1150 | 696 | 40 | 24.6 | 65.1 | 703 | 82.3 | 113 | – | – | – | – | – | – | – | – | –
2 | COCCOc1cc2ncnc(N3CCN(C(=O)Nc4ccc(OC(C)C)cc4)CC3)c2cc1OC | – | – | – | – | – | – | – | – | – | 73.6 | 26.6 | 72.1 | 1580 | 1250 | 762 | 1500 | 636 | 4250
